Source: article PMC10895845
Like-named read-outs stand apart in the source and are kept apart here. Results are given in words; binding and its absence hold for the method and conditions named. In cells and extracts the contact can be indirect. Here binding means that the protein was enriched with, or labelled near, the bait; the list need not be complete. For some of these results: A no says only that the protein was not detected with the bait. For some of these results: Where a sequence is shown, tags or fusion partners need not be part of it.

By UniProt entry, the sequences of proteins in these tests, tags left out.
UniProt Q8WUM4: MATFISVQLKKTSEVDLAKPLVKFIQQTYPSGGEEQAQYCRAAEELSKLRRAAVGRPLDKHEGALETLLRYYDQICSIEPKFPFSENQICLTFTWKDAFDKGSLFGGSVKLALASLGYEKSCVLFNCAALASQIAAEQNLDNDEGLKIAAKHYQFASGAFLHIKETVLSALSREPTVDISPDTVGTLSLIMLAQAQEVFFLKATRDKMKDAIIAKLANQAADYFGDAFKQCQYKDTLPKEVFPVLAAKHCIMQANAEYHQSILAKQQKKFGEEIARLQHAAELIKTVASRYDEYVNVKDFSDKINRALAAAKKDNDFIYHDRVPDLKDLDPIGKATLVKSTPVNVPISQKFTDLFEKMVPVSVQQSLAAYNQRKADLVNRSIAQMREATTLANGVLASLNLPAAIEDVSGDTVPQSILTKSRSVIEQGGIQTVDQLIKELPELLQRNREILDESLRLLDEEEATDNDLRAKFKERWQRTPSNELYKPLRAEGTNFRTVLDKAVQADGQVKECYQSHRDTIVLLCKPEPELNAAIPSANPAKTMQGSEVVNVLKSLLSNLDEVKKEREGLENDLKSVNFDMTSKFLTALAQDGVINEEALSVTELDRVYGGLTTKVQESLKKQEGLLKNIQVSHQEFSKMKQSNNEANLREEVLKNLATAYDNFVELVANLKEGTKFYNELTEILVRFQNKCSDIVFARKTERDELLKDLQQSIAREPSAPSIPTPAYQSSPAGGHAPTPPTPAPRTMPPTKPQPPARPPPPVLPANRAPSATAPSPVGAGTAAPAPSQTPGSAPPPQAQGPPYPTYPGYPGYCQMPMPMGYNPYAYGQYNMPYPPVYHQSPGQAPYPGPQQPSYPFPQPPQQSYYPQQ
UniProt Q9H0U4: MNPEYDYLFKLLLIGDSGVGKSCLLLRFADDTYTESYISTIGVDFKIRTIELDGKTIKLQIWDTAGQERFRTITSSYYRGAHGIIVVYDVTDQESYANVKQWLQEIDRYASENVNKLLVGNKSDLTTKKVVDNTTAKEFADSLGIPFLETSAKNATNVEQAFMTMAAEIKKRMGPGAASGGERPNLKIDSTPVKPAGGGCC

T1: MT-VMP1-flag (VMP1 C263, 278S palmitoylation-site mutant, flag-tagged) (UniProt Q96GC9)
T1 sequence: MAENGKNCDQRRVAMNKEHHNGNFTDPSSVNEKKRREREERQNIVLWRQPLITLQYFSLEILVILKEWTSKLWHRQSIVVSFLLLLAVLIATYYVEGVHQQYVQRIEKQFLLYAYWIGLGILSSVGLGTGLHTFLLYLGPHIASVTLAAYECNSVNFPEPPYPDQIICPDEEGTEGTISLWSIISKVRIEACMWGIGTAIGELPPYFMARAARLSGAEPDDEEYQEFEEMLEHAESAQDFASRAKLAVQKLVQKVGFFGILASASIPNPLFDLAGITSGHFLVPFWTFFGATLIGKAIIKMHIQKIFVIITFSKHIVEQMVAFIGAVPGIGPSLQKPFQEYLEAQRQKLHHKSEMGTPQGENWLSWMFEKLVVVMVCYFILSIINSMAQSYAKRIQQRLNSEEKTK


Tests used:
Assay in all cases: affinity purification with mass spectrometry; SCs transfected with WT-VMP1-flag, MT-VMP1-flag or flag control (NC); lysis in 25 mM Tris, 150 mM NaCl, 1 mM EDTA, 1% NP-40, 5% glycerol, pH 7.4; immunoprecipitation with anti-Flag; gel bands digested with trypsin, LC-MS/MS
[1] = molecular target: T1, MT-VMP1-flag (VMP1 C263, 278S palmitoylation-site mutant, flag-tagged)
[2] = molecular target: WT-VMP1-flag (flag-tagged wild-type Vacuole Membrane Protein 1) (UniProt Q96GC9)
[3] = molecular target: WT-VMP1-flag (flag-tagged wild-type Vacuole Membrane Protein 1) (UniProt Q96GC9); remark: listed apart in the source

Molecule | binding [1] | binding [2] | binding [3]
ALIX (encoded by PDCD6IP gene), endogenous in Sertoli cells (from UniProt Q8WUM4 1-868) | no binding | binds | –
Rab1B (from UniProt Q9H0U4 1-201) | – | binds | –
Rab9A (protein, UniProt P51151 1-201) MAGKSSLFKVILLGDGGVGKSSLMNRYVTNKFDTQLFHTIGVEFLNKDLEVDGHFVTMQIWDTAGQERFRSLRTPFYRGSDCCLLTFSVDDSQSFQNLSNWKKEFIYYADVKEPESFPFVILGNKIDISERQVSTEEAQAWCRDNGDYPYFETSAKDATNVAAAFEEAVRRVLATEDRSDHLIQTDTVNLHRKPKPSSSCC | – | – | binds
